From PubChem BioAssay AID493014 (National Center for Advancing Translational Sciences (NCATS), 2011)
The whole screen tested about 340,000 compounds, of which about 170 (0.05%) were called active. Inconclusive means that the source gave no clear call. Such entries were picked first, then a sample of the others. Calls follow the shape of the dose curve; as a rule, active = well fitted inhibition curve with a large enough effect in the signal ratio, with a control signal flat (not every such curve was filed as active); inconclusive = small, poorly fitted or top-dose-only effect, or effect the other way, or a change in a side signal; inactive = flat fitted curve, though single readings scatter; the % refers to the signal ratio. A potency beside an inconclusive call is a rough fit, not a confirmed value.

assay: qHTS Assay to Find Inhibitors of Chronic Active B-Cell Receptor Signaling; details: ABC-DLBCL IkBa-CBG/CBR reporter, luminescence ratio (green luciferase fused to IkBa over red control in TMD8 lymphoma cells), 4 h; activity change, negative = inhibition: at 46.1 µM (top of the series) unless noted;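 as to activity change, negative = inhibition: plate controls were basal doxycycline-induced cells for no effect and cells given 10 µM MG132 for full effect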
Summary of the method: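 Concentration-response series (up to 46 uM) were applied to TMD8 dual-reporter cells for 4 h at 37C with doxycycline. Green/red ratio, after filter-overlap correction, defined %Activity; red signal alone was normalised to basal cells and zero luminescence.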
Potency is read from the fitted curve at half-maximal effect.

Structure (SMILES) | Potency | activity change, negative = inhibition
Cc1ccccc1N=Cc1cccc(O)c1O | inconclusive: 29.1 µM [falling, partial curve, poor fit] | 
Cc1nn(CC(=O)NCCCN2CCCC2=O)c(C)c1[N+](=O)[O-] |  | inconclusive: 4.09%
c1ccc(-c2noc(-c3ccno3)n2)nc1 |  | inconclusive: -6.49%
CCn1c(SCC(=O)Nc2ccc(C)cc2)nnc1-c1cnccn1 | inconclusive: 35.5 µM [falling, partial curve, poor fit] | 
NC(=O)C1CCCN(S(=O)(=O)c2ccccc2)C1 (stereo not given) |  | inconclusive: 8.85%
Cc1ccc(C(=O)N2CCN(c3ccc(NC(=O)COc4ccccc4C)cc3)CC2)cc1 | inconclusive: 22.4 µM [falling, single point] | 
O=C(CC1CCCCC1)NCCCN1CCOCC1 |  | inconclusive: 5.01%
O=C(c1ccc(CSc2nc3ccncc3[nH]2)cc1)N1CCN(c2cccc(Cl)c2)CC1 | inconclusive: 18.4 µM [falling, partial curve, poor fit] | 
CC(C)C(=O)Nc1nc2cc3c(cc2s1)OCCO3 | inconclusive: 20 µM [falling, single point] | 
O=C(NC(=S)NNC(=O)c1cc2ccccc2cc1O)c1ccco1 | inconclusive: 35.5 µM [rising, single point] | 
O=C1Nc2cc(C(=O)N3CCOCC3)ccc2S/C1=C\c1ccccc1 |  | inconclusive: 3.06%
CCOc1ccc(C2C(C(=O)Nc3ccc(OC)cc3)=C(C)Nc3nc(CCCO)nn32)cc1 (stereo not given) |  | inactive
Cc1ccc(-n2ncc3c(NCc4cccnc4)ncnc32)c(C)c1 |  | inconclusive: -1.23%
Cc1ccc(-c2nnn(CC(=O)Nc3ccc4nn(-c5ccccc5)nc4c3)n2)o1 |  | inactive
CCOc1cccc(C2C(C(=O)c3ccc(C)o3)=C(O)C(=O)N2c2nccs2)c1 (stereo not given) |  | inactive
CN(C(=O)CSc1nc(-c2ccccc2)cn1N)C(c1ccccc1)c1ccccc1 | inconclusive: 4.11 µM [falling, full curve, poor fit] | 
CCN(c1ccccc1)c1cc(C)nc2nc(C)nn12 |  | inactive
CC(=O)N1c2ccc(S(=O)(=O)NCC3CCC(C(=O)NCc4ccco4)CC3)cc2CC1C (stereo not given) |  | inconclusive: -1.98%
O=C(CSc1ncc(-c2ccccc2)nn1)NCc1ccco1 |  | inactive
Cc1noc(C(=O)N(C)c2ccccc2)c1Cl |  | inconclusive: 1.54%
COc1ccccc1N(C)S(=O)(=O)c1ccc(C(=O)NC2CCCCC2)cc1 |  | inactive
c1ccc(-c2noc(CSc3nnnn3-c3ccccc3)n2)cc1 |  | inconclusive: 3.47%
CC(=O)C(Cl)C(=O)Nc1ccccc1 (stereo not given) | inconclusive: 3.16 µM [falling, partial curve, poor fit] | 
COC(=O)C(=Cc1ccc(-c2ccsc2C(=O)OC)o1)C(=O)OC | inconclusive: 15.8 µM [falling, partial curve] | 
CN(C)C1NC(=O)c2cc(-c3ccccc3)sc2N1 (stereo not given) |  | inconclusive: -11%
Cc1ccc(C(=O)N/C(=C\c2ccccc2)C(=O)NCc2ccncc2)cc1 |  | inconclusive: 17.1%
CC(C(=O)O)c1ccc(N2Cc3ccccc3C2=O)cc1 (stereo not given) | inconclusive: 25.1 µM [falling, partial curve] | 

Arranged by number of heavy atoms (low to high): 17 of the compounds above.
Structure (SMILES) | Potency | activity change, negative = inhibition
CC(=O)C(Cl)C(=O)Nc1ccccc1 (stereo not given) | inconclusive: 3.16 µM [falling, partial curve, poor fit] | 
c1ccc(-c2noc(-c3ccno3)n2)nc1 |  | inconclusive: -6.49%
Cc1noc(C(=O)N(C)c2ccccc2)c1Cl |  | inconclusive: 1.54%
NC(=O)C1CCCN(S(=O)(=O)c2ccccc2)C1 (stereo not given) |  | inconclusive: 8.85%
CN(C)C1NC(=O)c2cc(-c3ccccc3)sc2N1 (stereo not given) |  | inconclusive: -11%
CCN(c1ccccc1)c1cc(C)nc2nc(C)nn12 |  | inactive
CC(C(=O)O)c1ccc(N2Cc3ccccc3C2=O)cc1 (stereo not given) | inconclusive: 25.1 µM [falling, partial curve] | 
O=C(CSc1ncc(-c2ccccc2)nn1)NCc1ccco1 |  | inactive
COC(=O)C(=Cc1ccc(-c2ccsc2C(=O)OC)o1)C(=O)OC | inconclusive: 15.8 µM [falling, partial curve] | 
Cc1ccc(-n2ncc3c(NCc4cccnc4)ncnc32)c(C)c1 |  | inconclusive: -1.23%
O=C1Nc2cc(C(=O)N3CCOCC3)ccc2S/C1=C\c1ccccc1 |  | inconclusive: 3.06%
Cc1ccc(C(=O)N/C(=C\c2ccccc2)C(=O)NCc2ccncc2)cc1 |  | inconclusive: 17.1%
CCOc1cccc(C2C(C(=O)c3ccc(C)o3)=C(O)C(=O)N2c2nccs2)c1 (stereo not given) |  | inactive
Cc1ccc(-c2nnn(CC(=O)Nc3ccc4nn(-c5ccccc5)nc4c3)n2)o1 |  | inactive
O=C(c1ccc(CSc2nc3ccncc3[nH]2)cc1)N1CCN(c2cccc(Cl)c2)CC1 | inconclusive: 18.4 µM [falling, partial curve, poor fit] | 
CC(=O)N1c2ccc(S(=O)(=O)NCC3CCC(C(=O)NCc4ccco4)CC3)cc2CC1C (stereo not given) |  | inconclusive: -1.98%
CCOc1ccc(C2C(C(=O)Nc3ccc(OC)cc3)=C(C)Nc3nc(CCCO)nn32)cc1 (stereo not given) |  | inactive

Continuation:

Structure (SMILES) | Potency | activity change, negative = inhibition
COc1ccc([N+](=O)[O-])cc1N(CC(O)CN1CCCC1)S(=O)(=O)c1ccc(C)cc1 (stereo not given) |  | inactive
Cc1ccc(C(C(=O)NC2CCCCC2)N(C(=O)c2csnn2)C2CCCC2)o1 (stereo not given) |  | inconclusive: -4.66%
CN(C)S(=O)(=O)c1cccc(NC(=O)COC(=O)[C@H](Cc2ccccc2)NC(=O)c2ccco2)c1 |  | inactive
CC1(C)CC(=O)C2=C(C1)N1C(=C(C#N)C2c2ccc(Cl)cc2)N=C(N)c2ccccc21 (stereo not given) |  | inconclusive: -0.796%
CNCc1ccccc1OCC(=O)Nc1ccccc1 | inconclusive: 2.31 µM [falling, partial curve, poor fit] | 
O=C(NCCC1=CCCCC1)C1CCCN(S(=O)(=O)c2cccc3cccnc23)C1 (stereo not given) |  | inconclusive: -22.4%
CCOC(=O)c1c(-c2ccc(C)cc2)csc1NC(=O)CCN1CCOCC1 |  | inactive
O=C(Cc1cccs1)Nc1nncs1 |  | inconclusive: 11%
c1cc2c(cc1C1=Nn3c(nnc3C3CCCCC3)SC1)OCO2 | inconclusive: 16.4 µM [falling, partial curve] | 
O=C(CCC(=O)N(CC(=O)NC1CCCCC1)c1ccc(F)cc1)Nc1nccs1 | inconclusive: 10 µM [falling, partial curve] | 
COc1ccc(NC(=O)NC(C(F)(F)F)C(F)(F)F)cc1 |  | inconclusive: 12.6%
CCOc1ccc(NC(=S)NC(=O)C2CCCC2)cc1 |  | inconclusive: -0.253%
CC(=C\c1ccccc1)/C=C1/SC(=S)N(CCC(=O)O)C1=O | inconclusive: 0.562 µM [falling, full curve, poor fit] | 
S=C(Nc1ccc(Cl)cc1Cl)Nn1cnnc1 |  | inconclusive: 11.8%
S=c1nc2ccccc2c2nc(-c3ccccc3Br)[nH]n12 |  | inconclusive: -3.2%
O=C(NCCC1=CCCCC1)C(=O)NCC(c1ccco1)N1CCN(c2ccccc2F)CC1 (stereo not given) |  | inconclusive: 1.92%
O=c1oc(-c2ccccc2Br)nc2ccccc12 |  | inconclusive: 5.83%
CN(C)c1ccc(C(=O)NCC(c2cccs2)N2CCOCC2)cc1[N+](=O)[O-] (stereo not given) |  | inconclusive: 2.67%
COC(=O)[C@H](CC(C)C)NS(=O)(=O)N(Cc1ccccc1)[C@@H](CC(C)C)C(=O)OC |  | inconclusive: -2.1%
O=S(=O)(Nc1ccc2c(c1)nc1n2CCN(Cc2ccccc2)C1)c1ccccc1 | inconclusive: 2.91 µM [falling, partial curve, poor fit] | 
CC1CCc2c(sc(NC(=O)CCc3nc4ccccc4c(=O)[nH]3)c2C#N)C1 (stereo not given) |  | inactive
CC(=O)N1CCC(C(=O)Nc2ccc3c(c2)CCC3)CC1 |  | inconclusive: 3.69%
CCCOc1ccc([C@@H]2C3CN(C(=O)OCC)CC=C3C(C#N)=C(N)C2(C#N)C#N)cc1OC (stereo not given in full) |  | inconclusive: -11.5%
O=C(Cc1cccs1)Nc1ccc(S(=O)(=O)Nc2ncccn2)cc1 |  | inactive
COc1ccc(N(CC(=O)NCCSc2ccccn2)S(C)(=O)=O)cc1Cl |  | inconclusive: -4.82%
Cc1ccccc1C(=O)Nc1ccc2c(c1)nc(CCNC(=O)c1ccco1)n2C | inconclusive: 11.2 µM [falling, partial curve, poor fit] | 
CCOc1ccc(NCCC(=O)c2ccc3c(c2)OCO3)cc1 |  | inconclusive: 7.38%

Structure (SMILES) | Potency | activity change, negative = inhibition
COc1ccc(CC(=O)OCC(=O)NC(=O)NC2CCCC2)cc1 |  | inconclusive: -6.61%
COc1c(C)cc(Br)cc1C(=O)NC(=S)NCc1ccco1 |  | inconclusive: 8.02%
COc1ccc(/C=C/C(=O)NCc2cnn(C)c2C)cc1COc1ccc(Br)cc1 |  | inconclusive: -22.7%
O=C(Nc1nncs1)c1ccc(F)c(S(=O)(=O)N2CCCCC2)c1 |  | inactive
COCCN(CC1CCCN(C2Cc3ccccc3C2)C1)C(=O)c1ccc(C(C)=O)cc1 (stereo not given) |  | inactive
CC(=O)c1ccc(NC(=O)NC2CC(=O)N(c3ccc4c(c3)OCCO4)C2)cc1 (stereo not given) |  | inactive
COc1ccc(C)c2sc(N(Cc3cccnc3)C(=O)c3cccs3)nc12 |  | inactive
COc1ccc(OC)c(CN2CCC(CO)(CCOc3ccccc3)CC2)c1 |  | inconclusive: 12.8%
O=S(=O)(/N=C(/Nc1ccccc1F)c1ccccc1)c1ccccc1 |  | inconclusive: -22.5%
CC(CN1CCCCC1)OC(=O)c1ccc(Cl)cc1Cl (stereo not given) |  | inconclusive: -0.006%
COc1ccccc1NS(=O)(=O)c1ccc(N/N=C/c2ccccc2OCC(=O)O)c([N+](=O)[O-])c1 |  | inactive
COc1ccc(C2=Nn3c(nnc3-c3cc(C)[nH]n3)SC2)cc1 | inconclusive: 10 µM [falling, partial curve] | 
CCN(CC)CCOC(=O)c1ccc(NC(=O)CCCN2C(=O)/C(=C/c3cccs3)SC2=S)cc1 | inconclusive: 17.8 µM [falling, partial curve] | 
CC(=O)Nc1ccc2nc(-c3cccs3)[nH]c2c1 |  | inconclusive: -3.62%
COc1cc(CNc2ccccc2SC)cc(OC)c1OC |  | inconclusive: 3.23%
COc1cccc(NC(=O)c2cc(=O)c3ccccc3o2)c1 | inconclusive: 6.31 µM [falling, full curve] | 
Cn1nnc(NC(=S)NC(=O)c2ccco2)n1 | inconclusive: 29.1 µM [falling, single point] | 
O=C(NCCc1cccc(Cl)c1)c1cccc([N+](=O)[O-])c1 |  | inconclusive: 18.9%
Cc1cc(C)c(S(=O)(=O)c2ccccc2)c(OC(=O)c2ccc(Cl)cc2Cl)n1 |  | inconclusive: 7.13%
CC1=C(C)CC(C(=O)NC2CCN(C(C)C)CC2)C(C(=O)O)C1 (stereo not given) |  | inconclusive: 8.72%
O=C(CCSc1nc(-c2ccco2)cc(C(F)(F)F)n1)NCCN1CCOCC1 |  | inconclusive: -16.8%
O=S(=O)(NC1CCCCC1N1CCN(c2ccc(F)cc2)CC1)c1ccc(Cl)cc1 (stereo not given) | inconclusive: 7.94 µM [rising, partial curve, poor fit] | 
COC(=O)c1ccccc1NC(=O)C1CCN(c2ncnc3c2nc2n3CCCCC2)CC1 |  | inconclusive: 3.33%
COc1ccc(Br)c(C(=O)Nc2cccc(Cl)c2Cl)c1 |  | inconclusive: -1.41%
O=C(NC1CC1)c1cc(-c2ccc(Br)cc2)nc2ccccc12 |  | inconclusive: 11.3%
Cc1ccc(C(=O)N2CCCCC2)cc1NC1=C(Cl)C(=O)N(Cc2ccccc2)C1=O | inconclusive: 32.6 µM [falling, partial curve, poor fit] | 
